Measurements reported in US7795284B2, “4,7-dioxobenzothiazole-2-carboxamide derivatives, their preparation and their therapeutic uses” (Ipsen Pharma S.A.S., priority 2004, dated 2010).
Some results were stated once for a whole list of compounds, not compound by compound.

target: T1, purified recombinant enzyme Cdc25-C (MBP-Cdc25C) (Homo sapiens, UniProt P30307); assay: Measurement of the phosphatase activity of the purified recombinant enzyme Cdc25C (OMFP dephosphorylation, fluorescence); type: biochemical; conditions: OMFP 500 μM, 4 hours at 30° C., three independent experiments
T1 construct: made in house
T1 sequence (P30307 1-473): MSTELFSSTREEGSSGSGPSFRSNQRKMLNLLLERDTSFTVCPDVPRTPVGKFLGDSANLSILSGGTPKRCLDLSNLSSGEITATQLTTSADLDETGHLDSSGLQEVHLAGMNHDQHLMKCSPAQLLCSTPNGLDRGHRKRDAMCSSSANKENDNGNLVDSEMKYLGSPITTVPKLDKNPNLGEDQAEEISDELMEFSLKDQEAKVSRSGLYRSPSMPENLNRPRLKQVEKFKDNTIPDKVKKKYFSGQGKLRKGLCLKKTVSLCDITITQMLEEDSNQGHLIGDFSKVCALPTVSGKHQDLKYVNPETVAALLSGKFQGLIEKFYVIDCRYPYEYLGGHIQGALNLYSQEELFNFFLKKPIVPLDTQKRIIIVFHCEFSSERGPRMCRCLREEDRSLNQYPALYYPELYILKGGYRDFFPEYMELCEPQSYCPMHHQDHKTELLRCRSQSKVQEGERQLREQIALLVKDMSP

IC50, ≤ 1100 nM:
CN(C)CCNC1=CC(=O)c2sc(C(=O)N3CCOCC3)nc2C1=O [Example 1, 5-{[2-(dimethylamino)ethyl]amino}-2-(morpholin-4-ylcarbonyl)-1,3-benzothiazole-4,7-dione]
CN(C)CCNC1=CC(=O)c2sc(C(=O)NCCOCCOCCNC(=O)OC(C)(C)C)nc2C1=O [Example 2, tert-butyl {2-[2-(2-{[(5-{[2-(dimethylamino)ethyl]amino}-4,7-dioxo-4,7-dihydro-1,3-benzothiazol-2-yl)carbonyl]amino}ethoxy)ethoxy]ethyl}carbamate]
CN(C)CCNC1=CC(=O)c2sc(C(=O)N(Cc3ccccc3)Cc3ccccc3)nc2C1=O [Example 3, N,N-dibenzyl-5-{[2-(dimethylamino)ethyl]amino}-4,7-dioxo-4,7-dihydro-1,3-benzothiazole-2-carboxamide]
COCCN(CCOC)C(=O)c1nc2c(s1)C(=O)C=C(NCCN(C)C)C2=O [Example 4, 5-{[2-(dimethylamino)ethyl]amino}-N,N-bis(2-methoxyethyl)-4,7-dioxo-4,7-dihydro-1,3-benzothiazole-2-carboxamide]
CN(C)CCNC1=CC(=O)c2sc(C(=O)NCCCN3CCCC3=O)nc2C1=O [Example 5, 5-{[2-(dimethylamino)ethyl]amino}-4,7-dioxo-N-[3-(2-oxopyrrolidin-1-yl)propyl]-4,7-dihydro-1,3-benzothiazole-2-carboxamide]
O=C(NCCCN1CCCC1=O)c1nc2c(s1)C(=O)C=C(NCCN1CCCC1)C2=O [Example 6, 4,7-dioxo-N-[3-(2-oxopyrrolidin-1-yl)propyl]-5-[(2-pyrrolidin-1-ylethyl)amino]-4,7-dihydro-1,3-benzothiazole-2-carboxamide]
CC(C)CNC(=O)c1nc2c(s1)C(=O)C=C(NCCN(C)C)C2=O [Example 7, 5-{[2-(dimethylamino)ethyl]amino}-N-isobutyl-4,7-dioxo-4,7-dihydro-1,3-benzothiazole-2-carboxamide]
CN(C)CCNC1=CC(=O)c2sc(C(=O)NCCCCNC(=O)OC(C)(C)C)nc2C1=O [Example 8, tert-butyl (4-{[(5-{[2-(dimethylamino)ethyl]amino}-4,7-dioxo-4,7-dihydro-1,3-benzothiazol-2-yl)carbonyl]amino}butyl)carbamate]
CN(C)CCNC1=CC(=O)c2sc(C(=O)N3CCN(C(=O)c4ccco4)CC3)nc2C1=O [Example 9, 5-{[2-(dimethylamino)ethyl]amino}-2-{[4-(2-furoyl)piperazin-1-yl]carbonyl}-1,3-benzothiazole-4,7-dione]
COCCNC(=O)c1nc2c(s1)C(=O)C=C(NCCN(C)C)C2=O [Example 10, 5-{[2-(dimethylamino)ethyl]amino}-N-(2-methoxyethyl)-4,7-dioxo-4,7-dihydro-1,3-benzothiazole-2-carboxamide]
CCCCNC(=O)c1nc2c(s1)C(=O)C=C(NCCN(C)C)C2=O [Example 11, N-butyl-5-{[2-(dimethylamino)ethyl]amino}-4,7-dioxo-4,7-dihydro-1,3-benzothiazole-2-carboxamide]
CN(C)CCNC1=CC(=O)c2sc(C(=O)NCc3ccccc3)nc2C1=O [Example 12, N-benzyl-5-{[2-(dimethylamino)ethyl]amino}-4,7-dioxo-4,7-dihydro-1,3-benzothiazole-2-carboxamide]
CN(C)CCNC1=CC(=O)c2sc(C(=O)NCC3CCCCC3)nc2C1=O [Example 13, N-(cyclohexylmethyl)-5-{[2-(dimethylamino)ethyl]amino}-4,7-dioxo-4,7-dihydro-1,3-benzothiazole-2-carboxamide]
CN(C)CCNC1=CC(=O)c2sc(C(=O)NCCOCCNC(=O)c3nc4c(s3)C(=O)C=C(NCCN(C)C)C4=O)nc2C1=O [Example 14, N,N′-(oxydiethane-2,1-diyl)bis(5-{[2-(dimethylamino)ethyl]amino}-4,7-dioxo-4,7-dihydro-1,3-benzothiazole-2-carboxamide)]
CN(C)CCNC1=CC(=O)c2sc(C(=O)NCCOCCOCCNC(=O)c3nc4c(s3)C(=O)C=C(NCCN(C)C)C4=O)nc2C1=O [Example 15, N,N′-[ethane-1,2-diylbis(oxyethane-2,1-diyl)]-bis(5-{[2-(dimethylamino)ethyl]amino}-4,7-dioxo-4,7-dihydro-1,3-benzothiazole-2-carboxamide)]
CN(C)CCNC1=CC(=O)c2sc(C(=O)N3CCN(C(=O)N4CCOCC4)CC3)nc2C1=O [Example 16, 5-{[2-(dimethylamino)ethyl]amino}-2-{[4-(morpholin-4-ylcarbonyl)piperazin-1-yl]carbonyl}-1,3-benzothiazole-4,7-dione]
O=C1C(NCCN2CCCC2)=CC(=O)c2sc(C(=O)N3CCN(C(=O)N4CCOCC4)CC3)nc21 [Example 17, 2-{[4-(morpholin-4-ylcarbonyl)piperazin-1-yl]carbonyl}-5-[(2-pyrrolidin-1-ylethyl)amino]-1,3-benzothiazole-4,7-dione]
COc1ccc(NC(=O)c2nc3c(s2)C(=O)C=C(NCCN(C)C)C3=O)cc1 [Example 18, 5-{[2-(dimethylamino)ethyl]amino}-N-(4-methoxyphenyl)-4,7-dioxo-4,7-dihydro-1,3-benzothiazole-2-carboxamide]
CN(C)CCNC1=CC(=O)c2sc(C(=O)N3CCN(S(C)(=O)=O)CC3)nc2C1=O [Example 19, 5-{[2-(dimethylamino)ethyl]amino}-2-{[4-(methylsulphonyl)piperazin-1-yl]carbonyl}-1,3-benzothiazole-4,7-dione]
CN(C)CCNC1=CC(=O)c2sc(C(=O)N3CCN(C(=O)C4CCCO4)CC3)nc2C1=O (stereo not shown) [Example 20, 5-{[2-(dimethylamino)ethyl]amino}-2-{[4-(tetrahydrofuran-2-ylcarbonyl)piperazin-1-yl]carbonyl}-1,3-benzothiazole-4,7-dione]
CN(C)CCNC1=C(Br)C(=O)c2sc(C(=O)N3CCN(C(=O)C4CCCO4)CC3)nc2C1=O (stereo not shown) [Example 21, 6-bromo-5-{[2-(dimethylamino)ethyl]amino}-2-{[4-(tetrahydrofuran-2-ylcarbonyl)piperazin-1-yl]carbonyl}-1,3-benzothiazole-4,7-dione]
CN(C)CCNC1=CC(=O)c2sc(C(=O)N3CCCC3)nc2C1=O [Example 22, 5-{[2-(dimethylamino)ethyl]amino}-2-(pyrrolidin-1-ylcarbonyl)-1,3-benzothiazole-4,7-dione]
CN(C)CCNC1=CC(=O)c2sc(C(=O)N3CCN(C(=O)c4cccs4)CC3)nc2C1=O [Example 23, 5-{[2-(dimethylamino)ethyl]amino}-2-{[4(2-thienylcarbonyl)piperazin-1-yl]carbonyl}-1,3-benzothiazole-4,7-dione]
CCNC(=O)c1nc2c(s1)C(=O)C=C(NCCN(C)C)C2=O [Example 24, 5-{[2-(dimethylamino)ethyl]amino}-N-ethyl-4,7-dioxo-4,7-dihydro-1,3-benzothiazole-2-carboxamide]
CN(C)CCNC1=CC(=O)c2sc(C(=O)Nc3ccc(Cl)cc3)nc2C1=O [Example 25, N-(4-chlorophenyl)-5-{[2-(dimethylamino)ethyl]amino}-4,7-dioxo-4,7-dihydro-1,3-benzothiazole-2-carboxamide]
CN(C)CCNC1=CC(=O)c2sc(C(=O)Nc3ccc4c(c3)OCO4)nc2C1=O [Example 26, N-1,3-benzodioxol-5-yl-5-{[2-(dimethylamino)ethyl]amino}-4,7-dioxo-4,7-dihydro-1,3-benzothiazole-2-carboxamide]
COCCNC1=CC(=O)c2sc(C(=O)N3CCN(C(=O)C4CCCO4)CC3)nc2C1=O (stereo not shown) [Example 27, 5-[(^2-methoxyethyl)amino]-2-{[4-(tetrahydrofuran-2-ylcarbonyl)piperazin-1-yl]carbonyl}-1,3-benzothiazole-4,7-dione]
CN1CCN(C2=CC(=O)c3sc(C(=O)N4CCN(C(=O)C5CCCO5)CC4)nc3C2=O)CC1 (stereo not shown) [Example 28, 5-(4-methylpiperazin-1-yl)-2-{[4-(tetrahydrofuran-2-ylcarbonyl)piperazin-1-yl]carbonyl}-1,3-benzothiazole-4,7-dione]
O=C1C(NCCc2ccccn2)=CC(=O)c2sc(C(=O)N3CCN(C(=O)C4CCCO4)CC3)nc21 (stereo not shown) [Example 29, 5-[(2-pyridin-2-ylethyl)amino]-2-{[4-(tetrahydrofuran-2-ylcarbonyl)piperazin-1-yl]carbonyl}-1,3-benzothiazole-4,7-dione]
O=C1C(NCCCN2CCOCC2)=CC(=O)c2sc(C(=O)N3CCN(C(=O)C4CCCO4)CC3)nc21 (stereo not shown) [Example 30, 5-[(3-morpholin-4-ylpropyl)amino]-2-{[4-(tetrahydrofuran-2-ylcarbonyl)piperazin-1-yl]carbonyl}-1,3-benzothiazole-4,7-dione]
O=C1C(NC2CCN(Cc3ccccc3)C2)=CC(=O)c2sc(C(=O)N3CCN(C(=O)C4CCCO4)CC3)nc21 (stereo not shown) [Example 31, 5-[(1-benzylpyrrolidin-3-yl)amino]-2-{[4-(tetrahydrofuran-2-ylcarbonyl)piperazin-1-yl]carbonyl}-1,3-benzothiazole-4,7-dione]
